Sequences of proteins named here, by UniProt entry; tags and fusion partners are left off.
UniProt Q9UQQ2: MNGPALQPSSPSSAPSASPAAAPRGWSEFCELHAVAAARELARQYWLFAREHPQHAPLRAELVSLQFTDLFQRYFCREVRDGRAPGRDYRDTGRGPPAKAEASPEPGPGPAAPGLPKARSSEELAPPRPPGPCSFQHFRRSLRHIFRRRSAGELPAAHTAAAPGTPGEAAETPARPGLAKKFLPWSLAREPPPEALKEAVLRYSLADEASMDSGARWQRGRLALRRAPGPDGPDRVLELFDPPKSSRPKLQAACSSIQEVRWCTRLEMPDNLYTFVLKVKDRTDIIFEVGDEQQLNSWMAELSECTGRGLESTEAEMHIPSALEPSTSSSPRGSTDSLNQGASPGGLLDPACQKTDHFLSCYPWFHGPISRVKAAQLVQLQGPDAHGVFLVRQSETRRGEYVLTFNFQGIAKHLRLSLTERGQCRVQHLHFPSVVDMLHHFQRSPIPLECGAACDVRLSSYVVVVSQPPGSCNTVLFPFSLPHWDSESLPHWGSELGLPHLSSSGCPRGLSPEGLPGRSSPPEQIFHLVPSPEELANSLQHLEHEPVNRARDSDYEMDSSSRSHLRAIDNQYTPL
UniProt P62258: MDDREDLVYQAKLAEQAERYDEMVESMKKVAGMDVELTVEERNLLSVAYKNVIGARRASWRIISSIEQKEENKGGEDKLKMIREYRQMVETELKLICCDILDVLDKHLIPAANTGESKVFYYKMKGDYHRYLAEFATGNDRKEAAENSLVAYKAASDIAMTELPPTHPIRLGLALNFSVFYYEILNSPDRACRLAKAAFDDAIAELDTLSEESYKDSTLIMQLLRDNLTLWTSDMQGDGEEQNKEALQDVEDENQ

According to publication PMC6953139:

Biological target: LNK-flag (adaptor protein LNK, SH2B3), expressed in 293FT cells (UniProt Q9UQQ2)
Assay: affinity purification with mass spectrometry; LNK-flag from transfected 293FT lysate held on FLAG beads, 4 °C overnight, IP lysis buffer (150 mM NaCl; 1% NP-40), eluted with FLAG peptide; SDS-PAGE, silver staining, unique bands analysed by LC-MS; empty pMSCV vector as control

| Molecule | binding |
| --- | --- |
| 14-3-3ε (YWHAE), endogenous in 293FT cells (from UniProt P62258 1-255) | binds |
| 14-3-3γ (YWHAG), endogenous in 293FT cells (protein, UniProt P61981 1-247) MVDREQLVQKARLAEQAERYDDMAAAMKNVTELNEPLSNEERNLLSVAYKNVVGARRSSWRVISSIEQKTSADGNEKKIEMVRAYREKIEKELEAVCQDVLSLLDNYLIKNCSETQYESKVFYLKMKGDYYRYLAEVATGEKRATVVESSEKAYSEAHEISKEHMQPTHPIRLGLALNYSVFYYEIQNAPEQACHLAKTAFDDAIAELDTLNEDSYKDSTLIMQLLRDNLTLWTSDQQDDDGGEGNN | binds |

These are yes or no findings as the source states them, for the method shown. In cells and extracts the contact can be indirect. These calls come from enrichment with a bait or labelling near it, and not all partners need be listed.
